# PubChem BioAssay AID652243 | Drosophila RNAi Screening Center | 2013
# Test: 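Fly genes required for human androgen receptor driven transcription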 (primary screen)
# System: Drosophila S2R+ cells
# Knock-down reagent: long dsRNA against Drosophila genes
# Time to read-out: 72 h (48 h, then 24 h hormone)
# Treatment: synthetic androgen R1881 at 10 nM for 24 h
# Measurement: 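Firefly light from an androgen-responsive reporter and Renilla control light per well, raw and unnormalised, for each of two replicates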
# Scale: firefly reporter light: higher = more light from androgen-responsive reporter; Renilla control light: higher = more constitutive control signal (cell number, transfection)
# Call rule: 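Across duplicate plates, a knock-down whose log firefly/Renilla ratio shifted a set fold down or up from the GFP/LacZ control mean was a hit; the downward cut appears as both 1.5 and 3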
# Calls: active = hit: reporter lowered or raised; inactive = no hit
# The deposit covers about 24,000 reagents; shown is a random part of those with a known target gene and a result. Over the whole deposit, 246 (1%) got an active call. 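Plates not normalised; calls are printed but the firefly/Renilla ratio behind them is not deposited; fold cut for lowering reported inconsistently.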 Raw values are not corrected between plates. Unmarked entries are inactive. Reagents against one gene are numbered here. Names joined by + are all predicted targets of the reagent. No sequences are given here. The record does not give: the amount of reagent.
gene knocked down,dsRNA no.,"firefly reporter light, replicate 1","firefly reporter light, replicate 2","Renilla control light, replicate 1","Renilla control light, replicate 2"
Asx,1,7.01e5,6.74e5,9.54e5,1.00e6
Mul1,1,79121,1.01e5,1.17e6,1.57e6
Mul1,2,5.59e5,7.10e5,8.58e5,9.14e5
CG34234 + Dh44-R2,1,7.89e5,7.96e5,1.36e6,1.52e6
CG14282,1,2.50e5,1.99e5,3.92e6,2.66e6
CG14282,2,2.79e5,3.09e5,3.34e5,4.42e5
Efa6,1,95592,64454,1.66e5,1.96e5
Efa6,2,78413 (active),65084,1.73e6,1.42e6
Efa6,3,6.60e5,4.69e5,1.14e6,1.19e6

Part of the list above, set out differently.
gene knocked down | dsRNA no. | firefly reporter light, replicate 1 | firefly reporter light, replicate 2 | Renilla control light, replicate 1 | Renilla control light, replicate 2
Efa6 | 1 | 95592 | 64454 | 1.66e5 | 1.96e5
Efa6 | 2 | 78413 (active) | 65084 | 1.73e6 | 1.42e6
Efa6 | 3 | 6.60e5 | 4.69e5 | 1.14e6 | 1.19e6

The listing continues:
gene knocked down,dsRNA no.,"firefly reporter light, replicate 1","firefly reporter light, replicate 2","Renilla control light, replicate 1","Renilla control light, replicate 2"
CG13047,1,2.79e5,2.14e5,2.93e6,1.70e6
CG13047,2,9.28e5,1.06e6,1.27e6,1.43e6
Task7,1,1.28e5,1.51e5,2.90e6,2.67e6
Task7,2,4.31e5,4.00e5,6.87e5,6.49e5
mew,1,1.24e6,9.63e5,2.33e6,1.08e6
mew,2,3.87e5,3.58e5,1.64e6,2.01e6
CG13229,1,5.23e5,4.38e5,2.09e6,1.53e6
Ets65A,1,1.18e5,90640,1.76e6,1.52e6
Ets65A,2,9.25e5,9.95e5,1.24e6,1.55e6
Ets65A,3,1.19e6,1.01e6,1.28e6,1.76e6
fz3,1,2.46e5,2.38e5,2.68e6,3.18e6
fz3,2,6.60e5,5.98e5,1.15e6,1.15e6
Hao + Pex6,1,1.02e6,5.09e5,9.82e5,7.08e5
Hao + Pex6,2,2.76e5,2.03e5,1.36e6,1.05e6
CG14000,1,84607,96852,1.23e6,1.15e6
